PubChem BioAssay AID1053208 | Peter MacCallum Cancer Centre | 2014
This is an unselected part of about 17,000 reagents. 788 of them (4.7%) count as active. 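Calls rest on z-score classes alone; an extra cut-off of viability at most 70% of control was not applied to them.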 Not all columns of the deposit are shown.

- Test: 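Find knock-downs that sensitise mouse osteosarcoma cells to doxorubicin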 (primary screen)
- Cells: mouse osteosarcoma cells, early-passage culture from an engineered mouse model of fibroblastic bone tumour
- Reagents: siRNA pool against mouse genes, 40 nM
- Timing: about 120 h (48 h before drug, then 72 h with drug)
- Conditions: doxorubicin 100 nM for 72 h, roughly 30-40% inhibitory dose
- Measured: 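Viability read as ATP luminescence after 72 h of 100 nM doxorubicin or none, duplicate wells averaged, scaled to non-targeting siRNA, then expressed as robust z-scores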
- Reading the numbers: viability z-score with doxorubicin: higher = more viable cells under doxorubicin; viability z-score without drug: higher = more viable cells with knock-down alone
- Active means: 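Called active if knock-down leaves viability unchanged without drug (z within -2 to 2) but lowers it with doxorubicin (z at or under -2)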

target | PubChem SID | combined z-score class | viability z-score with doxorubicin | viability z-score without drug | Outcome
Ndufa12 (GeneID 66414) | SID152314445 | no change with or without drug | -0.22 | 0.34 | inactive
Nsun2 (GeneID 28114) | SID152280731 | no change with or without drug | 0.22 | -0.84 | inactive
Tnfrsf13c (GeneID 72049) | SID152339278 | no change with or without drug | 0 | -0.51 | inactive
Smoc2 (GeneID 64074) | SID152302406 | no change with or without drug | 0 | 0 | inactive
Slc1a6 (GeneID 20513) | SID152324462 | no change with or without drug | -1.35 | -1.18 | inactive
Adgra2 (GeneID 78560) | SID152310318 | no change with or without drug | -0.22 | -1.18 | inactive
Spag6l (GeneID 50525) | SID152327017 | no change with or without drug | 0.22 | -0.67 | inactive
Kash5 (GeneID 384619) | SID152318824 | no change with or without drug | -0.11 | -0.17 | inactive

A run of entries taken from the entries so far, as a working copy:
target | PubChem SID | combined z-score class | viability z-score with doxorubicin | viability z-score without drug | Outcome
Adgra2 (GeneID 78560) | SID152310318 | no change with or without drug | -0.22 | -1.18 | inactive
Spag6l (GeneID 50525) | SID152327017 | no change with or without drug | 0.22 | -0.67 | inactive

The results go on.
target | PubChem SID | combined z-score class | viability z-score with doxorubicin | viability z-score without drug | Outcome
Prox1 (GeneID 19130) | SID152315187 | no change with or without drug | 0.45 | -0.51 | inactive
Cyp2c65 (GeneID 72303) | SID152329255 | high cell count with doxorubicin only | 2.59 | -0.17 | inactive
Ripply3 (GeneID 170765) | SID152276242 | no change with or without drug | -0.9 | 0.84 | inactive
Nr5a1 (GeneID 26423) | SID152278228 | no change with or without drug | 1.57 | 0.51 | inactive
Galr3 (GeneID 14429) | SID152290908 | no change with or without drug | 0.45 | -0.17 | inactive
Tlr8 (GeneID 170744) | SID152341902 | no change with or without drug | 0.67 | -0.17 | inactive
Galnt18 (GeneID 233733) | SID152340967 | high cell count with doxorubicin only | 2.36 | 0.84 | inactive
Qpctl (GeneID 67369) | SID152278762 | high cell count with doxorubicin only | 2.25 | 1.52 | inactive
Slc39a4 (GeneID 72027) | SID152330227 | no change with or without drug | 0.22 | 0 | inactive
Atp7a (GeneID 11977) | SID152271749 | no change with or without drug | -1.57 | -0.17 | inactive
Pea15a (GeneID 18611) | SID152300773 | no change with or without drug | -0.9 | -0.17 | inactive
Mrgpra8 (GeneID 404237) | SID152289472 | no change with or without drug | 0.45 | -0.17 | inactive
